# Data taken from patent publication US6482255B1, “Disazodyes for ink jet printing” (Avecia Limited, priority 1997, dated 2002).
# Assay: Light-fastness of ink jet prints (ΔE / optical density loss after irradiation in Atlas Weatherometer)
# Protocol: The reflected optical density (ROD) and light-fastness (ΔE) were measured as described in Example 1.
# The ratio of Dyes (A), (B) and (C) in Example 4 may be varied by altering the time and temperature of the ethanolamine condensation step (Example 1, step (iv)). The solubility of a variety of dye compositions in water at 20° C. and pH 9.5 is shown in Table 2 below together with optical density, light fastness (ΔE after 50 hours) and wet-fastness results of prints prepared from these compositions. The prints were prepared by printing an ink formed by dissolving 2.5 parts of each composition in 97.5 parts of a mixture consisting of 88 parts water, 5 parts thiodiglycol, 5 parts 2-pyrrolidone and 2 parts Surfynol 465™ (a non-ionic surfactant) onto the substrate shown in the third column of Table 2 using a Canon 4300 ink jet printer.
structure (smiles),measurement,setting,value
CNCCCNc1nc(NCCO)nc(Nc2ccc(/N=N/c3c(N)ccc4cc(S(=O)(=O)O)cc(O)c34)c(S(=O)(=O)O)c2)n1 [Dye (1)],Light-fastness (ΔE @ 50 hrs),Substrate SG = Seiko Epson glossy film,6
same,Light-fastness (ΔE @ 50 hrs),Substrate XA = Xerox 4024 Acid Paper,6.2
